PubChem BioAssay AID1671195 – Yale University, 2021
The deposit covers about 22,000 reagents; this is a part drawn at random. About 1,510 of all reagents (6.9%) were called active. 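Active includes knockdowns raising or lowering LDL uptake; positive z-scores mean more uptake, negative mean less.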 Reagents against one gene are numbered here.

- Purpose: 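Knockdowns that increase or decrease uptake of fluorescent LDL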 (primary screen)
- Cells: human Huh7 hepatoma cells
- Reagents: siRNA pool against human genes, 18 nM
- Time to read-out: about 2 to 2.5 days of knockdown, then 8 h LDL uptake
- Conditions: DiI-labelled LDL at 30 µg/ml for 8 h, in lipoprotein-deficient serum medium
- Measured: 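Fluorescent LDL signal imaged in cells, scaled to the plate median, robust z-score for each replicate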
- Scale: robust z-score: higher = more LDL uptake after knockdown
- Rule for the call: 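Active when two or more replicates show a robust z-score above 2 or below -2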

After knock-down of ITGAV (GeneID 3685) the results were robust z-score, replicate 1 = 0.338; robust z-score, replicate 2 = -1.02; robust z-score, replicate 3 = -1.12; inactive. Silencing of CEP162 (GeneID 22832) resulted in: robust z-score, replicate 1 = 2.74; robust z-score, replicate 2 = 1.56; robust z-score, replicate 3 = 0.89; inactive. Silencing of PTGER3 (GeneID 5733) resulted in: robust z-score, replicate 1 = -1.29; robust z-score, replicate 2 = -0.991; robust z-score, replicate 3 = -1.67; inactive. Silencing of FOXP1 (GeneID 27086) gave: robust z-score, replicate 1 = 0.0363; robust z-score, replicate 2 = -0.665; robust z-score, replicate 3 = -0.998; inactive. With knock-down of NOAZFP (GeneID 27309) the results were robust z-score, replicate 1 = -0.858; robust z-score, replicate 2 = 0.454; robust z-score, replicate 3 = -1.22; inactive. Depletion of IMMP1L (GeneID 196294) gave: robust z-score, replicate 1 = -1.57; robust z-score, replicate 2 = -1.07; robust z-score, replicate 3 = -1.11; inactive.

Knock-down of SLC24A5 (GeneID 283652) resulted in: robust z-score, replicate 1 = 0.0541; robust z-score, replicate 2 = -0.115; robust z-score, replicate 3 = -0.0297; inactive. With knock-down of CLEC12A-AS1 (GeneID 400002), the record shows robust z-score, replicate 1 = -0.805; robust z-score, replicate 2 = -0.588; robust z-score, replicate 3 = -0.457; inactive. Against SEC24B (GeneID 10427), the entry reads robust z-score, replicate 1 = -0.368; robust z-score, replicate 2 = 0.0682; robust z-score, replicate 3 = -1.06; inactive. Against ECE1 (GeneID 1889), the entry reads robust z-score, replicate 1 = 0.941; robust z-score, replicate 2 = 0.487; robust z-score, replicate 3 = 0.529; inactive. ISY1 (GeneID 57461) gave robust z-score, replicate 1 = -1.09; robust z-score, replicate 2 = -1.13; robust z-score, replicate 3 = -1.13; inactive. After knock-down of ZNF807P (GeneID 100129800), the screen gave robust z-score, replicate 1 = -1.21; robust z-score, replicate 2 = -0.839; robust z-score, replicate 3 = -1.16; inactive.

For PSTPIP1 (GeneID 9051), the entry reads robust z-score, replicate 1 = 0.553; robust z-score, replicate 2 = 0.481; robust z-score, replicate 3 = -0.308; inactive. LOC389390 (retired record) (GeneID 389390) scored robust z-score, replicate 1 = 0.719; robust z-score, replicate 2 = 0.243; robust z-score, replicate 3 = 0.8; inactive. NFU1 (GeneID 27247) scored robust z-score, replicate 1 = -0.836; robust z-score, replicate 2 = -0.937; robust z-score, replicate 3 = -2.23; inactive. Depletion of LOC441344 (retired record) (GeneID 441344) resulted in: robust z-score, replicate 1 = 0.523; robust z-score, replicate 2 = -0.639; robust z-score, replicate 3 = -0.61; inactive. Against DHDDS (GeneID 79947), the entry reads robust z-score, replicate 1 = 2.81; robust z-score, replicate 2 = 2.31; robust z-score, replicate 3 = 3.42; active. With knock-down of RPS6KA1 (GeneID 6195), the screen gave robust z-score, replicate 1 = -0.161; robust z-score, replicate 2 = 0.453; robust z-score, replicate 3 = 1.87; inactive.

ANKUB1 (GeneID 389161) #1 showed robust z-score, replicate 1 = 1.56; robust z-score, replicate 2 = 1.01; robust z-score, replicate 3 = 0.963; inactive. ANKUB1 (GeneID 389161) #2 gave robust z-score, replicate 1 = 0.637; robust z-score, replicate 2 = -0.109; robust z-score, replicate 3 = -0.0171; inactive. Knock-down of LGALS17A (GeneID 400696) came out at: robust z-score, replicate 1 = -0.531; robust z-score, replicate 2 = -0.282; robust z-score, replicate 3 = -0.163; inactive. Against UBE2L6 (GeneID 9246), the values are robust z-score, replicate 1 = 0.159; robust z-score, replicate 2 = -0.179; robust z-score, replicate 3 = -1.16; inactive. Against ADRB3 (GeneID 155) the deposit lists robust z-score, replicate 1 = 0.672; robust z-score, replicate 2 = -0.367; robust z-score, replicate 3 = -0.654; inactive. After knock-down of CD6 (GeneID 923), the record shows robust z-score, replicate 1 = 0.352; robust z-score, replicate 2 = 0.886; robust z-score, replicate 3 = 0.853; inactive.

For BAG3 (GeneID 9531), the entry reads robust z-score, replicate 1 = -1.11; robust z-score, replicate 2 = -1.07; robust z-score, replicate 3 = -1.14; inactive. With knock-down of GOLGA3 (GeneID 2802), the record shows robust z-score, replicate 1 = 1.38; robust z-score, replicate 2 = 1.12; robust z-score, replicate 3 = -0.151; inactive. Silencing of DTX1 (GeneID 1840) came out at: robust z-score, replicate 1 = -0.8; robust z-score, replicate 2 = -0.688; robust z-score, replicate 3 = -0.554; inactive. Knock-down of OR4N2 (GeneID 390429) resulted in: robust z-score, replicate 1 = -1.14; robust z-score, replicate 2 = -1.03; robust z-score, replicate 3 = -1.24; inactive. Depletion of LINC01777 (GeneID 284661) gave: robust z-score, replicate 1 = -0.138; robust z-score, replicate 2 = -0.584; robust z-score, replicate 3 = -0.637; inactive. With knock-down of INSRR (GeneID 3645) the results were robust z-score, replicate 1 = -0.313; robust z-score, replicate 2 = 0.384; robust z-score, replicate 3 = -0.234; inactive.

An excerpt taken from the entries so far, as a working copy:
RPS6KA1 (GeneID 6195) — robust z-score, replicate 1: -0.161; robust z-score, replicate 2: 0.453; robust z-score, replicate 3: 1.87; call: inactive
ANKUB1 (GeneID 389161) #1 — robust z-score, replicate 1: 1.56; robust z-score, replicate 2: 1.01; robust z-score, replicate 3: 0.963; call: inactive
ANKUB1 (GeneID 389161) #2 — robust z-score, replicate 1: 0.637; robust z-score, replicate 2: -0.109; robust z-score, replicate 3: -0.0171; call: inactive
LGALS17A (GeneID 400696) — robust z-score, replicate 1: -0.531; robust z-score, replicate 2: -0.282; robust z-score, replicate 3: -0.163; call: inactive
UBE2L6 (GeneID 9246) — robust z-score, replicate 1: 0.159; robust z-score, replicate 2: -0.179; robust z-score, replicate 3: -1.16; call: inactive
